Assay results reported in paper PMC12249541, “Novel Derivatives of 3-Amino-4-hydroxy-benzenesulfonamide: Synthesis, Binding to Carbonic Anhydrases, and Activity in Cancer Cell 2D and 3D Cultures” (International Journal of Molecular Sciences, 2025).

Experiments:
Format in all cases: cell-based
human glioblastoma U-87 = test: MTT cell viability assay, U-87; conditions: 72 h
[1] = system: triple-negative breast cancer MDA-MB-231; test: MTT cell viability assay, MDA-MB-231; conditions: Homo sapiens, 72 h
[2] = system: prostate adenocarcinoma PPC-1; test: MTT cell viability assay, PPC-1; conditions: Homo sapiens, 72 h
[3] = system: human foreskin fibroblasts (HFs); test: MTT cell viability assay, fibroblasts; conditions: Fibroblast, 72 h

Measured: EC50

CC(=O)Nc1nnc(S(N)(=O)=O)s1 [AZM, acetazolamide, reference compound]
> 500 µM: all assays above
